The results in this text go back to paper PMC3547832, “Secondary Metabolism and Development Is Mediated by LlmF Control of VeA Subcellular Localization in Aspergillus nidulans” (PLoS Genetics, 2013).

Protein sequences, listed by entry. Tags and fused reporters are not part of them. Lines headed by an entry give the natural chain unless they say otherwise; changes in a name come on top.
UniProt C8VTS4: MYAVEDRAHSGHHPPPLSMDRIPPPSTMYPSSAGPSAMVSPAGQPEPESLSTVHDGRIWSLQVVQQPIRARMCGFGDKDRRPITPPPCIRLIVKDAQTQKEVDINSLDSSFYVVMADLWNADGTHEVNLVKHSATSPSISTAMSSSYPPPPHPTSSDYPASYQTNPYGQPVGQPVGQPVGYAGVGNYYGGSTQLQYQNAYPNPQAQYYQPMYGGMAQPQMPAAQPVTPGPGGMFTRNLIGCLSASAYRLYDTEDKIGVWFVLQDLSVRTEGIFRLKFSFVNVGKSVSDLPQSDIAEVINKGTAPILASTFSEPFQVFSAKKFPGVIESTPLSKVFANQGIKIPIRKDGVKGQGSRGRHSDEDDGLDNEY
UniProt C8VQG9: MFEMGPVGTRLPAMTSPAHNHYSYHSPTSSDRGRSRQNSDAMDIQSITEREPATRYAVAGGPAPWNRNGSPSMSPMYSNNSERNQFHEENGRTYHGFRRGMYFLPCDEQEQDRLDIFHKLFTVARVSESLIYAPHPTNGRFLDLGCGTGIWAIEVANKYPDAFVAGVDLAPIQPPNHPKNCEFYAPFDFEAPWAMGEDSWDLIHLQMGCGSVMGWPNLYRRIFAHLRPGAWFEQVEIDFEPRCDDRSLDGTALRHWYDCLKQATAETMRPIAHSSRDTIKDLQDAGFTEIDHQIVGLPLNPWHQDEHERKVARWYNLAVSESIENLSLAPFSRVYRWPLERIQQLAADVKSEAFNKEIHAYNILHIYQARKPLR
UniProt G5EB89: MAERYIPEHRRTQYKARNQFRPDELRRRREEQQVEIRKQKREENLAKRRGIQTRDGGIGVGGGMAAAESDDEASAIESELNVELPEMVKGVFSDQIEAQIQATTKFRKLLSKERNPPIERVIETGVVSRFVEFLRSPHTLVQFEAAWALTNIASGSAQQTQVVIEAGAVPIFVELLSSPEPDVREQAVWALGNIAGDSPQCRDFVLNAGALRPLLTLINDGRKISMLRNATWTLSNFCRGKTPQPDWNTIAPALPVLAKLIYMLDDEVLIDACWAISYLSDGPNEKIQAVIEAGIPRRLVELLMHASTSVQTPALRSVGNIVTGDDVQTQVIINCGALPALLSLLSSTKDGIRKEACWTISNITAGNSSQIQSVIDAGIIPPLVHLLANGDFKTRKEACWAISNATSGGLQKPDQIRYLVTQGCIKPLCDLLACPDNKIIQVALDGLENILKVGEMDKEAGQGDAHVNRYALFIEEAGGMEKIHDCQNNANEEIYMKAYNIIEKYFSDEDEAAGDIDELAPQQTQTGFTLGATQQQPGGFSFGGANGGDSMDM

Results are given in words; binding and its absence hold for the method and conditions named. For some of these results: A result given as binding can be weak or reduced; the word gives no strength. For some of these results: Where a sequence is shown, tags or fusion partners need not be part of it. For some of these results: Binding seen in cells or lysates may run through a third protein.

Test [1] addresses VelB (yeast two-hybrid fusion, full length) (Aspergillus nidulans) (UniProt C8VTS4). In words: two-hybrid; directed yeast two-hybrid based on the LexA DNA binding domain (bait pTLexA, prey pGAD424) in S. cerevisiae L40; histidine growth reporter and lacZ X-gal colorimetric reporter.
In test [2] the target is LaeA (yeast two-hybrid fusion, full length) (Aspergillus nidulans) (UniProt C8VQG9). The test is described as above.
Test [3] addresses LaeA-like methyltransferase LlmF (yeast two-hybrid fusion, full length) (Aspergillus nidulans). Described as above.
Test [4] addresses TAP-LlmF (over-expressed in A. nidulans) (Aspergillus nidulans). The experiment in a line: pull-down; in vivo tandem affinity purification of TAP-LlmF (IgG Sepharose, TEV cleavage, calmodulin sepharose) from crude extracts of A. nidulans liquid shaking cultures; anti-S-tag immunoblot of the eluate.
Test [5] concerns the target GST-LlmF (recombinant) (Aspergillus nidulans). In words: pull-down; 10 µg purified GST tagged protein, glutathione sepharose and purified His6-VeA-S-tag, 3 hours at 4°C in PBS buffer with 1 mM DTT, pH 7.3; anti-S-tag immunoblot; both purified.

For the molecule “importin α KapA (yeast two-hybrid fusion, full length) (from UniProt G5EB89)”, the binding entry in test [1] is on record as “binds”.
As for “VeA1, truncated VeA (yeast two-hybrid fusion) (from UniProt C8VTV4)”, the binding entry in test [2] is on record as “no binding”.

B1: VeA (yeast two-hybrid fusion, full length) (protein, UniProt C8VTV4 1-573)
chain: MATLAAPPPPLGESGNSNSVSRITREGKKITYKLNIMQQPKRARACGQGSKSHTDRRPVDPPPVIELNIFESDPHDDSNKTDITFVYNANFFLFATLEPERPIATGKLMTNQGSPVLTGVPVAGVAYLDKPNRAGYFIFPDLSVRNEGSYRFSFHLFEQIKDPKDATEGTQPMPSPVPGKLSSPQEFLEFRLEVISNPFIVYSAKKFPGLTTSTPISRMIAEQGCRVRIRRDVRMRRRGDKRTEDYDYDNERGYNNRRPDQYAGSDAYANAPERPRSTSISTNMDPYSYPSRRPSAVEYGQPIAQPYQRPMASTPAPSSTPIPAPIPMPGPVALPPSTPSPASAHAPAPPSVPLAAPPPLHTPSYQSHLSFGATQTQYPAPQLSHIPQQTTTPTHPYSPRSSISHSRNQSISEYEPSMGYPGSQTRLSAERPSYGQPSQTTSLPPLRHSLEPSVNSRSKTPSNMITSLPPIQSLSELPSTTSQPSSAIGSSPANEPGPRLWETNSMLSKRTYEESFGHDDRPLYNGMRPDSESYPGGMQRRPSYERSSLLDGPDQMAYKRANGRMVSKPATMR
In the case of B1, in test [3], the binding entry is “binds”.

B2: VeA-S-tag (in A. nidulans) (protein, UniProt C8VTV4 1-573)
chain: B1 chain
Consider B2, for which the binding entry in test [4] is “binds”.

B3: His6-VeA-S-tag (recombinant) (protein, UniProt C8VTV4 1-573)
chain: B1 chain
With B3, in test [5], the binding result is “binds”.

B4: VeA N terminus (1-235 aa) (yeast two-hybrid fusion) (domain or fragment, UniProt C8VTV4 1-235)
chain: MATLAAPPPPLGESGNSNSVSRITREGKKITYKLNIMQQPKRARACGQGSKSHTDRRPVDPPPVIELNIFESDPHDDSNKTDITFVYNANFFLFATLEPERPIATGKLMTNQGSPVLTGVPVAGVAYLDKPNRAGYFIFPDLSVRNEGSYRFSFHLFEQIKDPKDATEGTQPMPSPVPGKLSSPQEFLEFRLEVISNPFIVYSAKKFPGLTTSTPISRMIAEQGCRVRIRRDVRM
In the case of B4, the binding result in test [3] is on record as “no binding”.

B5: velvet domain of VeA (29-235) (yeast two-hybrid fusion) (domain or fragment, UniProt C8VTV4 29-235)
chain: KITYKLNIMQQPKRARACGQGSKSHTDRRPVDPPPVIELNIFESDPHDDSNKTDITFVYNANFFLFATLEPERPIATGKLMTNQGSPVLTGVPVAGVAYLDKPNRAGYFIFPDLSVRNEGSYRFSFHLFEQIKDPKDATEGTQPMPSPVPGKLSSPQEFLEFRLEVISNPFIVYSAKKFPGLTTSTPISRMIAEQGCRVRIRRDVRM
Consider B5, for which the binding result in test [3] was “no binding”.
